Publication PMC11671579
No constants are given. Whether binding was seen depends on the method and setting. In cells and extracts the contact can be indirect. Some entries that bind do so weakly or less than the wild type.

Sequences of proteins named here, by UniProt entry; tags and fusion partners are left off. Residues count along the entry.
UniProt Q01638, residues 19-556: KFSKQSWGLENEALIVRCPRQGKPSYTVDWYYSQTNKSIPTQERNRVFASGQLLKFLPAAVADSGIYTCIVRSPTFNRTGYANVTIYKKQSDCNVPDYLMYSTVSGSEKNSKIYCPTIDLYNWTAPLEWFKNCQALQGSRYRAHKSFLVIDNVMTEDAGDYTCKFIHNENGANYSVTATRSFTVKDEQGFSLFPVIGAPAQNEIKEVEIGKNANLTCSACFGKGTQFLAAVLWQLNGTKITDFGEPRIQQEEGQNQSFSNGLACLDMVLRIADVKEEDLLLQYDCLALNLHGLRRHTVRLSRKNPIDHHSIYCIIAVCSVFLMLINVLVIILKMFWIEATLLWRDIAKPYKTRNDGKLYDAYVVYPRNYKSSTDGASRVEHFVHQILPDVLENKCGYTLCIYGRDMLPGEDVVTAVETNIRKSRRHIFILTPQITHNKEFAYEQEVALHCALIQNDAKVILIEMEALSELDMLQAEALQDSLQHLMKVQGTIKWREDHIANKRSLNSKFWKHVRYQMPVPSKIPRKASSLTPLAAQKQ
UniProt Q99836: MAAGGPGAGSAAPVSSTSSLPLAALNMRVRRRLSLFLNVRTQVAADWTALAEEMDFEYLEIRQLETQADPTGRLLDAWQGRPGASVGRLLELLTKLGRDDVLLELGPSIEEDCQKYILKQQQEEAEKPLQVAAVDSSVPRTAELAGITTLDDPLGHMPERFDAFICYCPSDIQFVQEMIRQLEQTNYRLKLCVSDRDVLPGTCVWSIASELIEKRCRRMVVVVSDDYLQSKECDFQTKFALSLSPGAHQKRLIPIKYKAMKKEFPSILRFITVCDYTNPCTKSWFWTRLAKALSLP

Target: ST2 (stimulation 2, receptor of IL-33) (human (endogenous in neutrophils of RA patients)) (UniProt Q01638)
Assay: co-IP; lysates of RA neutrophils stimulated with IL-33 (100 ng/mL) or PBS for 1 h; anti-ST2 capture antibody overnight at 4 °C, Protein A/G magnetic beads; western blotting

binding: binds
Substance: MyD88 (from UniProt Q99836 1-296)
